Experimental findings from patent publication US20190352420A1 (Boehringer Ingelheim, published 2019) are described below.

One test has as its target T1, mouse CD73 (mouse, UniProt Q61503 29-551, limits assumed).
T1 construct: also called murine CD73
T1 sequence (looked up): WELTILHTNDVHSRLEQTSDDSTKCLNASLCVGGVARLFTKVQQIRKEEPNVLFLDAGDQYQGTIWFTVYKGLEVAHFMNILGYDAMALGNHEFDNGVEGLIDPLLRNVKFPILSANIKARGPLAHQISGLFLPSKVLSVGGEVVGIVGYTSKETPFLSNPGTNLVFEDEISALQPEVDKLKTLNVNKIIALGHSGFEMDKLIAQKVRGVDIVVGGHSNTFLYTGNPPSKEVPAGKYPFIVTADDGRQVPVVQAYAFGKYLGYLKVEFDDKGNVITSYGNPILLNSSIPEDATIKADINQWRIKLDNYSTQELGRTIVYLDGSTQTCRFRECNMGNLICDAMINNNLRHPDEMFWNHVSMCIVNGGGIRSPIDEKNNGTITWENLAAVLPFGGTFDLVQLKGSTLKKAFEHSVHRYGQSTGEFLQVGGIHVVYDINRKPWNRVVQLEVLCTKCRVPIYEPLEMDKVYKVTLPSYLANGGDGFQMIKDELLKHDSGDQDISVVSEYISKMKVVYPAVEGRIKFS
Kind of test: SPR. (Surface plasmon resonance follows binding to a sensor surface in real time, without labels.)

Test [1] addresses T2, CD73 protein construct for crystallography (human) (UniProt P21589).
T2 sequence: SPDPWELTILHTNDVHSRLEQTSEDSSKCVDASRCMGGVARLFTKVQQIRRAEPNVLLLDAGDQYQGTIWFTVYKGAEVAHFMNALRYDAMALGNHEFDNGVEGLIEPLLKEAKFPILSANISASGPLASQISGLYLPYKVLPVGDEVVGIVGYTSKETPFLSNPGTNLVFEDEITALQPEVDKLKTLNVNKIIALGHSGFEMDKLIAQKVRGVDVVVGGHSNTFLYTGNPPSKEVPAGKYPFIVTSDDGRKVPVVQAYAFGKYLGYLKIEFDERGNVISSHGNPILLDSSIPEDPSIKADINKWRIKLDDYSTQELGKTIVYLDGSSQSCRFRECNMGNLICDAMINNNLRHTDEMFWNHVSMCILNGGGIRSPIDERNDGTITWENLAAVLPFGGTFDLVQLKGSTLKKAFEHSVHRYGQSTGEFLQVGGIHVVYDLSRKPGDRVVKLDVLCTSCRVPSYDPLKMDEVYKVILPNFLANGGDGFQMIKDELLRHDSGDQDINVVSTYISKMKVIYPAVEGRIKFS
Kind of test: complex formation, gel filtration and co-crystallisation.

No constants are given. Whether binding was seen depends on the method and setting. Some results given as binding are weak or reduced against the parent protein; the word gives no strength.

B1: C2 (antibody, human IgG1, kappa, L234A L235A, V domains shown)
VH: QVQLVQSGAEVKKPGDSVKVSCKASGYTFTTYWMHWVRQAPGQGLEWMGAIYPGLSDTTYSQKFKGKVTMTRDTSTSTVYMKLSSLRSEDTAVYYCARLLDYAMDYWGQGTLVTVSS
VL: DIQMTQSPSSLSASVGDRVTITCRASQDIRSYLNWHQQKPGKAPKLLIWYTSRLHSGVPSRFSGSGSGTDYTLTISSLEPEDFATYFCQQGETLPWTFGQGTKLEIKR
notes: Humanized monoclonal antibody; also called anti-CD73 antibody C2
On to B1, for which the binding result with mouse CD73 is recorded as “binds”.

B2: Fab fragment of an anti-CD73 antibody according to the invention (Fab, V domains shown)
VH: QVQLVQSGAEVKKPGDSVKVSCKASGYTFTTYWMHWVRQAPGQGLEWMGAIYPGLSDTTYNQKFKGKVTMTRDTSTSTVYMKLSSLRSEDTAVYYCARLLDYAMDYWGQGTLVTVSS
VL: DIQMTQSPSSLSASVGDRVTITCRASQDIRSYLNWHQQKPGKAPKLLIWYTSRLHSGVPSRFSGSGSGTDYTLTISSLQPEDFATYFCQQGETLPWTFGQGTKLEIK
For B2, in test [1], the binding result is recorded as “binds”.

B3: C3 (antibody, human IgG1, kappa, L234A L235A, V domains shown)
VH: QVQLVQSGAEVKKPGDSVKVSCKASGYTFTTYWMHWVRQAPGQGLEWMGAIYPGLSDTTYSQKFKGKVTMTRDTSTSTVYMKLSSLRSEDTAVYYCARLLDYAMDYWGQGTLVTVSS
VL: DIQMTQSPSSLSASVGDRVTITCRASQDIRSYLNWHQQKPGKAPKLLIWYTSRLHSGVPSRFSGSGSGTDYTLTISSLQPEDFATYFCQQGETLPWTFGQGTKLEIKR
notes: Humanized monoclonal antibody; also called anti-CD73 antibody C3
For B3, the binding result with mouse CD73 was “binds”.

B4: C1 (antibody, human IgG1, kappa, L234A L235A, V domains shown)
VH: QVQLVQSGAEVKKPGDSVKVSCKASGYTFTTYWMHWVRQAPGQGLEWMGAIYPGFSDTTYSQKFKGKVTMTRDTSTSTVYMKLSSLRSEDTAVYYCARLLDYAMDYWGQGTLVTVSS
VL: DIQMTQSPSSLSASVGDRVTITCRASQDIRSYLNWHQQKPGKAPKLLIWYTSRLHSGVPSRFSGSGSGTDYTLTISSLEPEDFATYFCQQGETLPWTFGQGTKLEIKR
notes: Humanized monoclonal antibody; also called anti-CD73 antibody C1
On to B4, for which the binding result with mouse CD73 is recorded as “binds”.

B5: C4 (antibody, human IgG1, kappa, L234A L235A, V domains shown)
VH: QVQLVQSGAEVKKPGDSVKVSCKASGYTFTTYWMHWVRQAPGQGLEWMGAIYPGLSDTTYNQKFKGKVTMTRDTSTSTVYMKLSSLRSEDTAVYYCARLLDYAMDYWGQGTLVTVSS
VL: DIQMTQSPSSLSASVGDRVTITCRASQDIRSYLNWHQQKPGKAPKLLIWYTSRLHSGVPSRFSGSGSGTDYTLTISSLQPEDFATYFCQQGETLPWTFGQGTKLEIKR
notes: Humanized monoclonal antibody; also called C04; inventive anti-CD73 antibody C4
B5: the binding result in the test with mouse CD73 is reported as “binds”.

B6: C6 (antibody, human IgG1, kappa, L234A L235A, V domains shown)
VH: QVQLVQSGAEVKKPGDSVKVSCKASGYTFTTYWMHWVRQAPGQGLEWMGAIYPGNSDTTYNQKFKGKVTMTRDTSTSTVYMKLSSLRSEDTAVYYCARLLDYAMDYWGQGTLVTVSS
VL: DIQMTQSPSSLSASVGDRVTITCRASQDIRNYLNWHQQKPGKAPKLLIWYTSRLHSGVPSRFSGSGSGTDYTLTISSLQPEDFATYFCQQGNTLPWTFGQGTKLEIKR
notes: Humanized monoclonal antibody; also called anti-CD73 antibody C6
With B6, in the test with mouse CD73, the binding result is on record as “binds”.

B7: C5 (antibody, human IgG1, kappa, L234A L235A, V domains shown)
VH: QVQLVQSGAEVKKPGDSVKVSCKASGYTFTTYWMHWVRQAPGQGLEWMGAIYPGNSDTTYNQKFKGKVTMTRDTSTSTVYMKLSSLRSEDTAVYYCARLLDYAMDYWGQGTLVTVSS
VL: DIQMTQSPSSLSASVGDRVTITCRASQDIRSYLNWHQQKPGKAPKLLIWYTSRLHSGVPSRFSGSGSGTDYTLTISSLEPEDFATYFCQQGETLPWTFGQGTKLEIKR
notes: Humanized monoclonal antibody; also called anti-CD73 antibody C5
On to B7, for which, in the test with mouse CD73, the binding entry was “binds”.
